Here are results for one molecule from article PMC5399188.

Sequences of proteins named here, by UniProt entry; tags and fusion partners are left off.
UniProt P84022: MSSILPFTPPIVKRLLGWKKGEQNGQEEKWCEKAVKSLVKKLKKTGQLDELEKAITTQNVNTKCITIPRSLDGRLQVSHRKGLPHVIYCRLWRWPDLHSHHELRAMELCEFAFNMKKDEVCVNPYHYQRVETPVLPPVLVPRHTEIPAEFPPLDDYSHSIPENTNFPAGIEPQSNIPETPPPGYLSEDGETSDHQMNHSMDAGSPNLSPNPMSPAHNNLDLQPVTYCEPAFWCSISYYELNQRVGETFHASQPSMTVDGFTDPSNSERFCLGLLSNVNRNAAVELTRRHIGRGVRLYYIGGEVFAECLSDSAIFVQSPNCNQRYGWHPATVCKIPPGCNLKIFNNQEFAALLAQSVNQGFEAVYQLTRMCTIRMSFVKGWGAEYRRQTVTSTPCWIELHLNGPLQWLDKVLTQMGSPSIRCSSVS
UniProt Q15796: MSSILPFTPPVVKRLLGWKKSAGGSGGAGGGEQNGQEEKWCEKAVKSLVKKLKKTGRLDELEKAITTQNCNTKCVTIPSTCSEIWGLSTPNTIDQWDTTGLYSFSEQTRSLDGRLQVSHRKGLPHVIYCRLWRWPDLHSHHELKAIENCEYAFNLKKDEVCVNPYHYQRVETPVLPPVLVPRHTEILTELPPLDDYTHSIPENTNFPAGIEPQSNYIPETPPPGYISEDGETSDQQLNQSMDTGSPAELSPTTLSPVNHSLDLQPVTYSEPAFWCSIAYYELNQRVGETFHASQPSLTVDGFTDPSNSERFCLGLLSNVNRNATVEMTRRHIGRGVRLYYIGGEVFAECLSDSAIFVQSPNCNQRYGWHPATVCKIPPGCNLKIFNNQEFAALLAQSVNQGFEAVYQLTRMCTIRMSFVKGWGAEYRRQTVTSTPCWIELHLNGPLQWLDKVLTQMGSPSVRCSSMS

Experiment [1] has as its target HA-VC155-SMAD3 (UniProt P84022). In words: split reporter; BiFC competition in HEK293 cells: FLAG-VN173-AIMP1 with 0.5 ug HA-VC155-SMAD2 or -SMAD3 in the presence or absence of Myc-AIMP1 (0.1, 0.5 or 1 ug); read 24 h after transfection, fluorescent signals counted.
The target in experiment [2] is HA-VC155-SMAD2 (UniProt Q15796). The description is as above.

Results are given in words; binding and its absence hold for the method and conditions named. Binding seen in cells or lysates may run through a third protein. Some results given as binding are weak or reduced against the parent protein; the word gives no strength. Tags and fused reporters may be left off the sequences shown.

B1: myc-AIMP1 (protein, UniProt Q12904 1-312)
chain: MANNDAVLKRLEQKGAEADQIIEYLKQQVSLLKEKAILQATLREEKKLRVENAKLKKEIEELKQELIQAEIQNGVKQIPFPSGTPLHANSMVSENVIQSTAVTTVSSGTKEQIKGGTGDEKKAKEKIEKKGEKKEKKQQSIAGSADSKPIDVSRLDLRIGCIITARKHPDADSLYVEEVDVGEIAPRTVVSGLVNHVPLEQMQNRMVILLCNLKPAKMRGVLSQAMVMCASSPEKIEILAPPNGSVPGDRITFDAFPGEPDKELNPKKKIWEQIQPDLHTNDECVATYKGVPFEVKGKGVCRAQTMSNSGIK
For the molecule B1, the binding result in experiment [1] and in experiment [2] was “binds” each time.
